{"source": "paper doi:10.1101/2025.03.30.646141", "target": "aminoglycoside 3'-O-phosphotransferase IIb, APH(3')-IIb, wild type (Pseudomonas aeruginosa) (UniProt Q9HWR2)", "test": "SAXS", "note": "These are yes or no findings as the source states them, for the method shown."}
{"binder": "aminoglycoside 3'-O-phosphotransferase IIb, APH(3')-IIb, wild type (enzyme, UniProt Q9HWR2 1-268) MHDAATSMPPQAPSTWADYLAGYRWRGQGEGCSAATVHRLEAARRPTLFVKQEVLSAHAELPAEIARLRWLHGAGIDCPQVLNETQSDGRQWLLMSAVPGDTLSALAQRGELEPERLVRLVAAALRRLHDLDPAACPFDHRLERRLDTVRQRVEAGLVDEADFDDDHRGRSATELYRLLLDRRPAVEDLVVAHGDACLPNLLAEGRRFSGFIDCGRLGVADRHQDLALAARDIEAELGAAWAEAFLVEYGGDIDGERLAYFRLLDEFF", "values": [{"measurement": "binding", "value": "no binding (tested: up to 10 mg/mL)"}]}
